# Changes are numbered by the printed parent chain. These are yes or no findings as the source states them, for the method shown. Binding can be weak; no strength is given.
# B1: Cab01 (reformatted as human IgG4) (antibody, V domains shown)
# VH: EVQLVESGGGMVQPGGSLRVSCAASGFTFTKYYMQWVRQAPGKGPEWVGLIRNKANGGTAEYVASVKDRFTISRDDSKSIAYLQMSSLKTEDTAVYYCVMRDNGYHWGQGVLVTVSS
# VL: DIVLTQTPLSLPVTPGEPASISCRSSQRLLHSDGYTYLDWYLQKPGQSPQLLIYGGSNRASGVPDRFSGSGSGTDFTLKISKVEAEDVGVYYCMQHKALPLTFGGGTKVEIK
# B2: Cab13 (reformatted as human IgG4) (antibody, V domains shown)
# VH: VVQLVESGGGLVQPGGSLKVSCAASGFTFSDYYMQWVRQAPGKGPEWVGLIRNKAIGGTTQYAASVKGRFTISRDDSKSIVYLQMSSLKTEDTAVYYCVSRAGPPGLSWGQGVLVTISS
# VL: DIVMIQNPLSLPVTPGEPASISCRSSQSLLASDGYNYMDWYLQKPGQSPKVLIYGGSNRASGVPDRFSGSGSGTDFTLKITKVEAEDVGIYYCMQHKVLPPTFGQGTKLEIK
# B3: Cab05-IgG4 (antibody, V domains shown)
# VH: B2 VH with V1E, V2M, K19R, V20L, I56V, S79N, I80S, S86N, I117V
# VL: DIVMTQSPLSLPVTPGEPASISCRSSQSLLASDGYNYIDWYLQKPGQSPQLLIYGGSNRASGVPDRFSGSGSGTDFTLKISRVEAEDVGVYFCLQHRALPPTFGQGTKLEIK
# notes: Full-length human IgG4 with a human kappa or lambda light chain constant domain
# B4: Cab03 (reformatted as human IgG4) (antibody, V domains shown)
# VH: B2 VH with V1E, T28I, N53K, A55V, I56N, Q61E, T90I, S108T, I117V
# VL: DIVLTQTPLSLAVSPGEPASISCRSSQSLLASDGYTYLDWYLQKPGQSPQILIYGGSNRASGVPDRFSGRGSGTDFTLKITKVEAEDVGVYYCLQHRALPPTFGQGTKLEIK
# B5: Cab42-IgG1 (antibody, V domains shown)
# VH: B2 VH with V1E, V2M, K19R, V20L, I56V, G58E, S79N, I80S, S86N, I117V
# VL: B3 VL with G34A
# notes: Full-length human IgG1; It was biotinylated in the peptide-Fc ELISA
# Biological target: cynomolgus monkey C5a (cynomolgus monkey)
# Test: ELISA on cynomolgus monkey C5a (FIG. 2C)
row,Binder,binding
1,B1,binds
2,B2,binds
3,B3,binds
4,B4,binds
5,B5,binds

# Biological target: cynomolgus monkey C5a (cynomolgus monkey)
# Test: ELISA, plate coated with cynomolgus monkey C5a, full-length antibody titrated, OD410
row,Binder,binding
1,B1,binds
2,B2,binds
3,B3,binds
4,B4,binds
5,B5,binds
